Binding data for four substances are collected here from paper PMC7250858.

By UniProt entry, the sequences of proteins in these tests, tags left out. Where a name states a change or a piece, a line headed by the entry shows the natural chain unless it says otherwise. Residues count along the entry.
UniProt P78527: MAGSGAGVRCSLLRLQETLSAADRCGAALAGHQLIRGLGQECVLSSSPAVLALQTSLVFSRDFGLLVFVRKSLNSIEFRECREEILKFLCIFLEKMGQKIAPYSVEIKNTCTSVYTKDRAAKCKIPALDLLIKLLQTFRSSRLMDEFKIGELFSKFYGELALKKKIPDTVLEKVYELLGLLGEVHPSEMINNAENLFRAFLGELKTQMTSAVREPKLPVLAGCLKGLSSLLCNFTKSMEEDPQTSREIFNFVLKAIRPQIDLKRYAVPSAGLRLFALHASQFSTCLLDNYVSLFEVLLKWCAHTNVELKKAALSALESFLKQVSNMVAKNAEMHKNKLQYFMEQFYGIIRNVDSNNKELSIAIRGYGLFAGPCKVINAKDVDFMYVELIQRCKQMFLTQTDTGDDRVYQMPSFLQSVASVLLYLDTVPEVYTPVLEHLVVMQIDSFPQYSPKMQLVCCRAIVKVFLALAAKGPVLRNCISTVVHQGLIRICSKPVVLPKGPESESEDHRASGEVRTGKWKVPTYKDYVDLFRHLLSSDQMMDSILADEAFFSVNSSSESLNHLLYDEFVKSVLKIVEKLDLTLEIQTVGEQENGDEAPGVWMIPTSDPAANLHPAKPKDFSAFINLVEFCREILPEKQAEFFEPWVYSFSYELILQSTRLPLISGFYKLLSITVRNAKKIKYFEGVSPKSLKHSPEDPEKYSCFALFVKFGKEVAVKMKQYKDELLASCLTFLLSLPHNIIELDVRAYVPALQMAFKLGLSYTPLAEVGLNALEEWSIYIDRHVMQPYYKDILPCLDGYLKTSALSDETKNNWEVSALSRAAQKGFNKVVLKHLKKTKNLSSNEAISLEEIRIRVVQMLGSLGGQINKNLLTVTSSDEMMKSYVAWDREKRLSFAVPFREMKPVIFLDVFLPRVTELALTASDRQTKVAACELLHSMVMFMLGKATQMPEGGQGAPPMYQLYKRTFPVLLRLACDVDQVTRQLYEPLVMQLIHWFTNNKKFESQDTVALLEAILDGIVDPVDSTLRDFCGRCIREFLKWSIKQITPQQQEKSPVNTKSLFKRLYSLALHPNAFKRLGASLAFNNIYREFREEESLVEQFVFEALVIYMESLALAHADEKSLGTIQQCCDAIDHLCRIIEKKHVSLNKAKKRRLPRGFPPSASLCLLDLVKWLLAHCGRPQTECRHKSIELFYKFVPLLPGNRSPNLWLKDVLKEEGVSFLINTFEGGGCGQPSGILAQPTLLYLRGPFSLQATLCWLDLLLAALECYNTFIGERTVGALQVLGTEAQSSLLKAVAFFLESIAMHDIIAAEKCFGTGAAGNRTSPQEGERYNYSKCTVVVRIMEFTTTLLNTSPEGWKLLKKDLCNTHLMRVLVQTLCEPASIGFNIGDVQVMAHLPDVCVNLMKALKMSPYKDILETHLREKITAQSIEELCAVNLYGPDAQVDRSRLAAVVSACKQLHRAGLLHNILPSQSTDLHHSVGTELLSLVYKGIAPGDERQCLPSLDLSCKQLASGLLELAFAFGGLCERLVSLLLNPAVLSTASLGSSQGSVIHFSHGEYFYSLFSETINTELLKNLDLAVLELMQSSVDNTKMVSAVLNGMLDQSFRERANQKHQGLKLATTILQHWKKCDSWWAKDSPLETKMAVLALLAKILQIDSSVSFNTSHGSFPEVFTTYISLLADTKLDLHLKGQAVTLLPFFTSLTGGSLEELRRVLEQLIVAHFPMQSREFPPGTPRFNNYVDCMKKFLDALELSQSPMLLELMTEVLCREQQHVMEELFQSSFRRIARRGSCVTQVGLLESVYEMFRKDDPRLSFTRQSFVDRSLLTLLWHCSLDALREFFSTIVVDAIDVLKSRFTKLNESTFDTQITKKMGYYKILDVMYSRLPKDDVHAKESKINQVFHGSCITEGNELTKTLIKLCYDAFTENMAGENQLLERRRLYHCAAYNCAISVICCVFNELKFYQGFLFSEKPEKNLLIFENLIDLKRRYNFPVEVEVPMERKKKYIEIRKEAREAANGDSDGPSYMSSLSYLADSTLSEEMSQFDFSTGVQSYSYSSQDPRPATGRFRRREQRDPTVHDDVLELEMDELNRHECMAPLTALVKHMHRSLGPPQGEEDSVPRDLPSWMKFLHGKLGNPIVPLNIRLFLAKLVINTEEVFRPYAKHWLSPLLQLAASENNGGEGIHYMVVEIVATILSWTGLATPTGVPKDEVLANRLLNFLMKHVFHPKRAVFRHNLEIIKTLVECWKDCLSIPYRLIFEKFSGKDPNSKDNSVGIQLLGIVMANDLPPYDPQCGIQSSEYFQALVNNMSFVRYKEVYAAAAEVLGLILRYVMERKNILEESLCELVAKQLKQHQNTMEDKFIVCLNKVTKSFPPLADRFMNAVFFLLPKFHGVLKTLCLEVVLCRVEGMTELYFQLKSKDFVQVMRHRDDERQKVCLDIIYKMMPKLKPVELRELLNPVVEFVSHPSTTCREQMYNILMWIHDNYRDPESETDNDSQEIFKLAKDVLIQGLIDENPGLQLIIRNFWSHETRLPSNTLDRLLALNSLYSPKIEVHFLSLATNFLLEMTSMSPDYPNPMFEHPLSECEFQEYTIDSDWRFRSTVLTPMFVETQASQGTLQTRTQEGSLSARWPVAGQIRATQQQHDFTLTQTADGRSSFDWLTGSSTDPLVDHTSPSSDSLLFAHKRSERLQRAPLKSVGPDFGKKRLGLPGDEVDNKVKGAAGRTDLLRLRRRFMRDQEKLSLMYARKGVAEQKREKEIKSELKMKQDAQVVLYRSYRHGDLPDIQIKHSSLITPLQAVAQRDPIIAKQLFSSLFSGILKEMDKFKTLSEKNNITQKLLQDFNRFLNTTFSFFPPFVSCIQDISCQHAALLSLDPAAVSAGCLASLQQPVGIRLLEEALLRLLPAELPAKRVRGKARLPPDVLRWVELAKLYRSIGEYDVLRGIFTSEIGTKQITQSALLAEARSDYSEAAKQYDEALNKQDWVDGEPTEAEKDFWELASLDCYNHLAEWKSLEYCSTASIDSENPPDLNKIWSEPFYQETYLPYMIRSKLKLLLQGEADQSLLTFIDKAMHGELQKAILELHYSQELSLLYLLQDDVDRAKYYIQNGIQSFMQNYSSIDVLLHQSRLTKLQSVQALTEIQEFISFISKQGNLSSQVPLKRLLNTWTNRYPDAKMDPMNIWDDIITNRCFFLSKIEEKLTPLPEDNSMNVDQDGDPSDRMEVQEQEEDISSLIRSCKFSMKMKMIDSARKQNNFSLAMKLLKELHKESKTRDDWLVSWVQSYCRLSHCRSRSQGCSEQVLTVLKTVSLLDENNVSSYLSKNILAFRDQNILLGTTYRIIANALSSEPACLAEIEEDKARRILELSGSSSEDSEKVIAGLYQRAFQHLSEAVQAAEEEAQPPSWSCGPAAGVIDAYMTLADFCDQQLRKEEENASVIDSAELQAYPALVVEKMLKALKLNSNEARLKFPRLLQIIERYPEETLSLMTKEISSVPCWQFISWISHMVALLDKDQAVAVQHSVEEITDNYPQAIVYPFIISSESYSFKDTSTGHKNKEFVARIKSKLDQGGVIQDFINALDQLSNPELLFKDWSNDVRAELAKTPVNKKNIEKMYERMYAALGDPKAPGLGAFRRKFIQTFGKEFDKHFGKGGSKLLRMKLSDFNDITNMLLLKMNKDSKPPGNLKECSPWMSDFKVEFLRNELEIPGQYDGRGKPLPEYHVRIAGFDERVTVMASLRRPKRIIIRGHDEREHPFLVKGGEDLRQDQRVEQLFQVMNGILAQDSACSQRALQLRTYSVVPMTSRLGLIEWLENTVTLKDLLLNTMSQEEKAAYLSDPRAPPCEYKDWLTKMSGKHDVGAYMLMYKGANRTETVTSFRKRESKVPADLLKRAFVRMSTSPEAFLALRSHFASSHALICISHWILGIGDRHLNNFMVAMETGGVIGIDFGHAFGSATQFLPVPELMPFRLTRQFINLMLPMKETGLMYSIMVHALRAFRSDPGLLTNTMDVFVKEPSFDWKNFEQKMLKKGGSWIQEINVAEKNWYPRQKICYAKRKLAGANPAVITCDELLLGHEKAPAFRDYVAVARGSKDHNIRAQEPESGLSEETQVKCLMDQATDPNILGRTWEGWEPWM
UniProt Q15843, residues 1-76: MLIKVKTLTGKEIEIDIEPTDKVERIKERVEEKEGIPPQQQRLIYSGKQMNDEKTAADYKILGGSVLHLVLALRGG
UniProt P12956: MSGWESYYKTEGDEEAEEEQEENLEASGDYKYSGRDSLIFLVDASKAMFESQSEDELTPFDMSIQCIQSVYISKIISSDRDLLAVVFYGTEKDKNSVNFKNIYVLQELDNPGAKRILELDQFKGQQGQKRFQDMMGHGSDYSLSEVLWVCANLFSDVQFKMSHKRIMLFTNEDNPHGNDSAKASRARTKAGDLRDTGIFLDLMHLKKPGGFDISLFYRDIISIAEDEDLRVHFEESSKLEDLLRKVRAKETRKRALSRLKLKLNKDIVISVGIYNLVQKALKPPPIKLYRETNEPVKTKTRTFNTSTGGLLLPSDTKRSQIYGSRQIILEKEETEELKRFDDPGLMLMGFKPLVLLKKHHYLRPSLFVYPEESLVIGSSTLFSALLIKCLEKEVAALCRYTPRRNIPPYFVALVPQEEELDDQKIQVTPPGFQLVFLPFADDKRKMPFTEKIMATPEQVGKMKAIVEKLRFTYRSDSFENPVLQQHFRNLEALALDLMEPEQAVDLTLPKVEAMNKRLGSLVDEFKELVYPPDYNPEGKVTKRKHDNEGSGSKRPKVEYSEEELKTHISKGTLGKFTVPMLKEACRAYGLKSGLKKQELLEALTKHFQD
UniProt P61081: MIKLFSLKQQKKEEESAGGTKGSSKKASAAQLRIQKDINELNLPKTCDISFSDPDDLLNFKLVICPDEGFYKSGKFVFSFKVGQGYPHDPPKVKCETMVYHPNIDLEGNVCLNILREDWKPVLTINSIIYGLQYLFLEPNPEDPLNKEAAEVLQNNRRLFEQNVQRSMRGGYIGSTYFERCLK

These are yes or no findings as the source states them, for the method shown. Binding seen in cells or lysates may run through a third protein. Some results given as binding are weak or reduced against the parent protein; the word gives no strength.

In one experiment the target is Flag-tagged HUWE1 (UniProt Q7Z6Z7). Kind of experiment: co-IP; immunoprecipitation of Flag-HUWE1 from cell lysate, blots for DNA-PKcs, Ku70/Ku80 and UBE2M.
The target in experiment [1] is DNA-dependent protein kinase catalytic subunit (DNA-PKcs) (human (endogenous in the paper's human cell lines; line not stated for Fig. 3)) (UniProt P78527). Kind of experiment: co-IP; immunoprecipitation with DNA-PKcs antibody from cell lysate (NETN-300 lysis, diluted with NETN-100, protein A/G agarose), blot for HUWE1.
The next experiment concerns the target SFB-NEDD8 (wild type) (UniProt Q15843). Kind of experiment: pull-down; pull-down of SFB-NEDD8 from lysate of transfected 293T cells, blots for endogenous Ku80 and Ku70 (Supplementary Fig. 1A).

Consider “DNA-dependent protein kinase catalytic subunit (DNA-PKcs) (from UniProt P78527 1-4128) (enzyme)”, for which, in the experiment with Flag-tagged HUWE1, the binding result is listed as “binds”. In the case of “HUWE1 (HECT, UBA, and WWE domain containing E3 ubiquitin protein ligase 1), endogenous (from UniProt Q7Z6Z7 1-4374) (enzyme)”, the binding result in experiment [1] is “binds”. As for “Ku70/Ku80 heterodimer (from UniProt P12956 1-609; P13010 1-732) (complex)”, the binding result in the experiment with Flag-tagged HUWE1 is “binds”; in the experiment with SFB-NEDD8 (wild type), “no binding”. For the substance “UBE2M (neddylation E2-conjugating enzyme) (from UniProt P61081 1-183)”, the binding result with Flag-tagged HUWE1 was “binds”.
